This is an account of results in US8466089B2, “Pyrazole compounds, process for their production and herbicides containing them” (Ishihara Sangyo Kaisha, Ltd., priority 2008, dated 2013).

The subject of the data set is sorgo (Sorghum bicolor Moench) (var.: Lucky Sorgo). As to the kind of experiment: Test Example 6, soil column downward movement, sorgo bioassay. It counts as in vivo. As to conditions: 250 g/ha, water dropped 400 mL/hr for about 3 hours. The method, then: Soil (sterilized soil:sand=3:1) was packed (4 L) into a column (9.5 cm in diameter×40 cm in height, application area: 0.007 m^2), and tap water was dropped from above by a Peristaltic pump before application of the herbicide for the purpose of maintaining the soil moisture to be uniform. Then, 10 mL of a spray solution prepared so that each agent (Compound No. 2-1, the above Reference Compounds 1 and 2) would be at a concentration corresponding to 250 g/ha was dropwise applied by a pipette. After application, water was dropped again at a rate of 400 mL/hr for about 3 hours by means of a Peristaltic pump. After the dropping, the column was left to stand for 1 day, and then the column was vertically evenly divided and seeds of sorgo (Sorghum bicolor Moench) (var.: Lucky Sorgo) were sown in a row. On the 14th day after sowing, the state of growth of the plant was visually observed at 3 cm intervals from the application point of the agent, whereby the germination and the degree of growth were evaluated by a growth inhibition rate (%) of 0 (equivalent to the non-treated area) to 100% (complete kill) to obtain the results in Table 17.
From the above results, the growth inhibition rates of Reference Compounds No. 1 and No. 2 are observed in depths deeper than that of Compound No. 2-1. […] Whereas, Compound No. 2-1 stayed at a shallow portion of soil (in a layer of from 0 to 9 cm).
As for `CCn1ncc(C(=O)c2ccc(S(C)(=O)=O)c(OCCOC)c2C)c1OC(C)OC(=O)OC` (stereo not drawn) [Compound No. 2-1, 1-(1-Ethyl-4-(3-(2-methoxyethoxy)-2-methyl-4-(methylsulfonyl)benzoyl)-1H-pyrazol-5-yloxy)ethyl methyl carbonate], the “downward movement of the active ingredient in soil” value (shortened to “downward movement”) is on record as “scarcely moved downward”.

With `CCn1ncc(C(=O)c2ccc(S(C)(=O)=O)c(OCCOC)c2Cl)c1O` [Reference Compound 1], the “downward movement” value is recorded as “moved to deeper depths”.

For the molecule `COCCOc1c(S(C)(=O)=O)ccc(C(=O)c2cnn(C(C)C)c2O)c1Cl` [Reference Compound 2], the “downward movement” value is listed as “moved to deeper depths”.
